# Source: PubChem BioAssay AID504465 (National Center for Advancing Translational Sciences (NCATS), 2011)
# Screen size: about 2,100 compounds; about 210 (10%) were called active. Inconclusive results, whose numbers are uncertain, are shown with a selection of clear calls. Calls come from the whole dose curve; as a rule, active = well fitted inhibition curve with a large enough effect; inconclusive = small, poorly fitted or top-dose-only effect, or effect the other way; inactive = no such curve, though single readings can be large or run the other way. Potencies beside an inconclusive call are fits to weak or partial responses and may not hold up.
# Experiment: IN Cell qHTS Assay for Inhibitors of the mTORC1 Signaling Pathway in MEF (Tsc2-/-, p53-/-) Cells: Sytravon; note: nearly all actives have a fitted effect of over 60% in size
# Conditions: phospho-rpS6 immunofluorescence, 24 h; activity, negative = inhibition: at 38.3 µM (top of the series)
# In short: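 Immunofluorescence of rpS6 phosphorylation (Ser235/236) in mouse embryonic fibroblasts lacking Tsc2 and p53, after 24 h compound exposure; Hoechst-normalized signal imaged, each well scored as % active cells relative to rapamycin (7.5 nM) and DMSO controls.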
# Potency is the fitted concentration of half-maximal effect.
SMILES,"activity, negative = inhibition",Potency
COC(=O)c1c(C)oc2ccc(N(C(=O)c3ccncc3)S(=O)(=O)c3cc(C)ccc3C)cc12,inactive: -26.3%,
O=C(NC1CCN(Cc2ccccc2)CC1)c1ccc(Cn2c(=O)c3ccccc3n(Cc3ccc(F)cc3)c2=O)cc1,,active: 2.61 µM
Cc1cccc(N2CCN(c3ncnc4c3nc3n4CCCCC3)CC2C)c1 (stereo not drawn),,active: 14.7 µM
COc1ccc(C(=O)c2cnc3ccc(C)cc3c2S(=O)(=O)c2ccccc2)cc1,,"inconclusive: 23.3 µM [falling, single point]"
Cc1ccc(CN2C(=O)C(O)(CC(=O)c3ccc(C)cc3)c3ccccc32)cc1 (stereo not drawn),,active: 16.5 µM
O=C(NCc1ccccc1Cl)C1CCC(CNS(=O)(=O)c2ccc(Br)s2)CC1 (stereo not drawn),,"inconclusive: 26.1 µM [falling, single point]"
COc1ccc(-c2ccc3c(N)c(C(=O)Nc4cccc(C)c4)sc3n2)cc1,,active: 13.1 µM
Cc1cccc(N2CCN(C(=O)Cn3c(=O)c4cccn4c4ccc(F)cc43)CC2)c1C,,"inconclusive: 26.1 µM [falling, single point]"
CCN1CCN(c2cc(C)c3cc(NC(=O)/C=C/c4cccc(Cl)c4)ccc3n2)CC1,,"inconclusive: 4.65 µM [falling, full curve, poor fit]"
CCOC(=O)N1CCN(Cc2nc3cc(NC(=O)CC)ccc3n2C(C)C)CC1,,"inconclusive: 18.5 µM [falling, partial curve, poor fit]"
O=C(CCn1cnc2onc(-c3ccc(F)cc3)c2c1=O)Nc1ccc(F)c(Cl)c1,inactive: 1.08%,
COC(=O)c1sc2cccc(F)c2c1S(=O)(=O)N1CCN(c2cccc(OC)c2)CC1,inactive: 0.892%,
Cc1ccc2nc(N(CCCN(C)C)C(=O)c3ccco3)sc2c1,,"inconclusive: 18.5 µM [falling, single point]"
COc1ccccc1CNC(=O)c1ccc(-c2nc(CS(=O)c3ccc(C)cc3)c(C)o2)cc1 (stereo not drawn),,"inconclusive: 0.656 µM [falling, full curve, poor fit]"
Cc1ccc2c(CC(=O)Nc3cccc(C(F)(F)F)c3)coc2c1,,"inconclusive: 3.29 µM [falling, full curve, poor fit]"
CCOc1ccc(Nc2nc(N)c(C(=O)c3ccccc3Cl)s2)cc1,inactive: 1.3%,
COCCCNc1nc2c(c(=O)n(Cc3ccccc3)c(=O)n2C)n1C,,"inconclusive: 16.5 µM [falling, single point]"
CS(=O)(=O)c1ncc(Cl)c(C(=O)N2CCN(c3cccc(Cl)c3)CC2)n1,,active: 0.521 µM
CCCc1oc2ccc(NS(=O)(=O)c3ccc(OCC)cc3)cc2c1C(=O)OCC,,"inconclusive: 16.5 µM [falling, partial curve, poor fit]"
CCOc1ccccc1NC(=O)Nc1ccc2nc(N3CCN(C)CC3)cc(C)c2c1,,"inconclusive: 23.3 µM [falling, partial curve, poor fit]"
CCOc1ccc(-c2c(C)nn3c(C)c(C(=O)Nc4cccc(Cl)c4C)cnc23)cc1OCC,inactive: -10.9%,
Cc1ccc(NC(=O)C2CCCN(c3cnccn3)C2)cc1Cl (stereo not drawn),,"inconclusive: 18.5 µM [falling, partial curve, poor fit]"
Cn1nnnc1SCCCNCc1cccc(OCc2ccccc2F)c1,,"inconclusive: 1.47 µM [falling, partial curve, poor fit]"

# Quoted at random: 2 records from the list
SMILES,"activity, negative = inhibition",Potency
COc1ccc(-c2ccc3c(N)c(C(=O)Nc4cccc(C)c4)sc3n2)cc1,,active: 13.1 µM
CS(=O)(=O)c1ncc(Cl)c(C(=O)N2CCN(c3cccc(Cl)c3)CC2)n1,,active: 0.521 µM

# Continued.

SMILES,"activity, negative = inhibition",Potency
O=C(Cn1cc(SCc2ccc(Br)cc2)c2ccccc21)N1CCCCC1,,"inconclusive: 14.7 µM [falling, single point]"
Clc1ccccc1CSc1nnc(C2CCNCC2)o1,,"inconclusive: 26.1 µM [falling, single point]"
CCS(=O)(=O)c1oc(-c2ccc(F)cc2)nc1S(=O)(=O)c1ccccc1,,active: 0.208 µM
COc1ccc(C(=O)Nc2cc(-c3nc4ccccc4s3)ccc2OC)cc1,inactive: -10.3%,
Cc1cccc(CC(=O)Nc2ccc3nc(N4CCC(C)CC4)cc(C)c3c2)c1,inactive: -2.59%,
O=C(Nc1nc2ccc(F)cc2s1)c1nc(S(=O)(=O)Cc2ccccc2F)ncc1Cl,,"inconclusive: 23.3 µM [falling, single point]"
CC(C)(C)c1ccc(OCC(=O)NCC2(N3CCOCC3)CCCCC2)cc1,inactive: -38.2%,
CCOc1ccc(NC(=O)/C(C#N)=C\c2ccc(-c3ccc(Cl)cc3)o2)cc1,,"inconclusive: 16.5 µM [falling, partial curve, poor fit]"
COc1ccc(CNC(=O)c2ccc3c(c2)N(Cc2c(F)cccc2Cl)C(=O)CS3)cc1,,"inconclusive: 0.0233 µM [activator, full curve, poor fit]"
COc1cc(NC(=O)CSc2ccc(-c3ccccn3)nn2)cc(OC)c1,,"inconclusive: 13.1 µM [falling, partial curve, poor fit]"
Cc1cc(Nc2cccc(C(F)(F)F)c2)nc2ccc(NC(=O)c3cccc(Cl)c3)cc12,,"inconclusive: 16.5 µM [falling, partial curve, poor fit]"
Cc1ccc(Nc2c(C(C)C)c(C)c(C#N)c3nc4ccccc4n23)cc1,,"inconclusive: 13.1 µM [falling, single point]"
Oc1ccc(NCc2ccccc2OCc2ccc(Cl)cc2)cc1,,"inconclusive: 23.3 µM [falling, single point]"
COc1cc(CNCCSc2nnnn2C)cc(Cl)c1OCc1ccccc1,,"inconclusive: 23.3 µM [falling, single point]"
CCc1c(C)nc2nncn2c1NCc1ccc(Cl)cc1,inactive: -7.07%,
COc1ccc(Cl)cc1NC(=O)c1c(NCc2cccnc2)sc2c1CCC(C)C2 (stereo not drawn),inactive: 0%,
Cc1ccc(C(=O)N/C(=C\c2ccc(Cl)cc2)C(=O)NC2CCCCC2)cc1,,"inconclusive: 26.1 µM [falling, single point]"
COc1ccccc1C(=O)Nc1sc(Nc2ccccc2)nc1C(N)=O,,active: 18.5 µM
CCS(=O)(=O)c1ncc(Cl)c(C(=O)NCc2ccc(OC)cc2)n1,,active: 3.29 µM
Cn1nnnc1SCCCNCc1cccc(OCc2ccc(F)cc2)c1,,"inconclusive: 0.656 µM [falling, partial curve, poor fit]"
Cc1cccc(-n2cnc3cc(C(=O)NC4CCCCCC4)ccc32)c1,inactive: -13.7%,
Cc1ccc(NC(=O)C2CCCN(S(=O)(=O)c3ccc4c(c3)CCCC(=O)N4)C2)cc1Cl (stereo not drawn),inactive: 1.08%,
COc1ccc(CCNC(=O)C(=O)NCC(c2cccnc2)N2CCN(c3ccccc3)CC2)cc1 (stereo not drawn),,"inconclusive: 23.3 µM [falling, single point]"

# Filtered by structure: the entries above containing a cyano group.
SMILES,"activity, negative = inhibition",Potency
CCOc1ccc(NC(=O)/C(C#N)=C\c2ccc(-c3ccc(Cl)cc3)o2)cc1,,"inconclusive: 16.5 µM [falling, partial curve, poor fit]"
Cc1ccc(Nc2c(C(C)C)c(C)c(C#N)c3nc4ccccc4n23)cc1,,"inconclusive: 13.1 µM [falling, single point]"

# Remaining list, next part

SMILES,"activity, negative = inhibition",Potency
CC(=O)N1CCCc2cc(S(=O)(=O)N(Cc3ccccc3)C(C)C)ccc21,,"inconclusive: 3.69 µM [falling, full curve, poor fit]"
CCCSc1nnc2n(-c3ccc(OC)cc3)c(=O)c3c4c(sc3n12)COC(C(C)C)C4 (stereo not drawn),,"inconclusive: 23.3 µM [falling, single point]"
O=C1c2[nH]nc(-c3ccccc3O)c2C(c2ccc(Cl)cc2)N1CCc1ccccc1 (stereo not drawn),inactive: -15.5%,
COc1ccc(NC(=O)Cn2c(=O)n(-c3ccccc3)c(=O)c3ccc(C(=O)NCc4ccc5c(c4)OCO5)cc32)cc1,,"inconclusive: 7.36 µM [falling, partial curve, poor fit]"
Oc1cccc(Nc2nc(-c3ccccc3)nc3ccccc23)c1,inactive: 14.6%,
COc1cccc(/C=C(\C#N)c2nc3ccc(C)cc3[nH]2)c1,,"inconclusive: 1.85 µM [falling, partial curve, poor fit]"
Cc1ccc(-c2cnc(NCc3ccc(C(C)C)cc3)n2C)cc1,,"inconclusive: 10.4 µM [falling, partial curve, poor fit]"
Cc1cccc(-c2noc(CNC(=O)c3ccc(C)cc3C)n2)c1,inactive: -7.27%,
COc1ccccc1Oc1nc2c(C)cccn2c(=O)c1/C=C(\C#N)c1nc2ccccc2[nH]1,inactive: 21%,
CC(C)c1ccc(S(=O)(=O)Nc2ccc3oc4c(c3c2)C(=O)CC(C)(C)C4)cc1,inactive: -100%,
CC(=O)Nc1ccc(S(=O)(=O)N2CCC(Oc3ccc(-n4cnnn4)cc3)CC2)cc1,,"inconclusive: 16.5 µM [falling, single point]"
O=c1c2ccccc2n(Cc2cccc(F)c2)c(=O)n1Cc1ccccc1Cl,inactive: -28.4%,
COc1cc(NS(=O)(=O)c2ccc3c(c2)CCCN3C(C)=O)cc(OC)c1OC,,"inconclusive: 5.85 µM [falling, full curve]"
O=C(Nc1ccc(F)c(Cl)c1)c1cc(S(=O)(=O)N2CCCc3ccccc32)ccc1F,inactive: 6.25%,
COc1cc2ccccc2cc1C(=O)Nc1ccc2oc(-c3cccc(Cl)c3Cl)nc2c1,,"inconclusive: 5.21 µM [falling, single point]"
COc1ccccc1CNS(=O)(=O)c1cc2c3c(c1)CCN3C(=O)CC2,,"inconclusive: 3.29 µM [falling, full curve, poor fit]"
COc1ccc(Cn2c(C(=O)O)c(CNC3CCCCCC3)c3ccc(OC)cc32)cc1,inactive: -22.6%,
COc1ccc(-c2nc(SCC(=O)Nc3ccc4c(c3)OCO4)c(-c3ccc(OC)cc3)[nH]2)cc1,inactive: -30.5%,
COc1ccc(-n2c(=O)c3ccc(C(=O)NCc4ccc(C)cc4)cc3n(CC(=O)Nc3ccc(F)cc3)c2=O)cc1,,active: 14.7 µM
O=C(Nc1cccc(C(=O)N2CCN(c3ccc(Cl)cc3)CC2)c1)c1nsc2ccccc12,inactive: -20.5%,
CCC1CCc2nc3sc(C(=O)Nc4ccc(F)cc4F)c(N)c3cc2C1 (stereo not drawn),,"inconclusive: 10.4 µM [falling, partial curve, poor fit]"
CCCCNC(=O)CSc1nc2nc(C)c(Cc3ccccc3C)c(C)n2n1,,"inconclusive: 2.07 µM [activator, partial curve, poor fit]"
